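Genome-wide siRNA knockdown in TC32 Ewing sarcoma cells, comparing luciferase light from an NR0B1-promoter reporter with a CMV-promoter reporter 48 hours after transfection.
Each siRNA was applied at 20 nM.
A z-score of the log NR0B1-over-CMV signal, less the median of siRNAs with the same seed; more negative means a stronger specific loss of the NR0B1 reporter.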

This is part of the screen; most of the strongest results are not listed here.
Sequences are the guide (antisense) strand, without overhang.

strand | gene | seed-corrected z-score
AUAGUAUCAGAUUCGUCUG | MIA2 | 0.4336
UUUUCUCAAAUUUCCCAUC | WDR5 | -0.7497
AUGGUUUCCAGAUUGUAGG | SERPINA9 | -1.563
UCGGAGGAAAUUAUUAAGC | CADPS2 | -1.169
UGCUUUGACCAGUAGACCG | LOC643659 | -0.7078
UCCGUUUAUUCCUACGUCA | PCDH11X | -0.2176
UAGGGAGAUGAUAACAUCA | LRRC37BP1 | -0.7154
AACUUUCGUAGAAAUAGCC | CDC7 | 0.153
UAGCAGUUCACUAGGAUGC | MSL2 | 0.2785
UGUAAUUCCAUUCCUGAUG | SKIL | -0.9333
UCAUUAGUAUGGAUGCUCC | ERICH5 | -0.1489
UCUCUAAUCAAGAAAGUUC | SOCS2 | -0.1155
UUAGGUUUUCCUUUGUCGC | ZNF264 | 0.5832
UUUUAUGUUGAUGUAGGUG | ZNF714 | 0.425
UGUUUACUAAGAUUAGAGC | ZIM2 | -0.6308
UUAAGUCUAAGGAUUCAGG | PROX1 | 0.6581
UAAACAGCAGUAGAUGUCG | PCDHA7 | 0.7301
UUUGAUACCGUGUUCGGCC | RIF1 | 1.193
AAUUAAAACGUAAUUCUCC | DOT1L | 0.5139
UUAUAUAGCACGGGUAGAG | TIGD1 | 0.06507
UCCUGGACCAUGUAGCUCU | ARHGEF16 | -0.1156
UCAGUGAAGUCCUGAUAGG | RPS2P20 | 2.258
UUCGGUAUCGUACUCAUCC | ZDHHC17 | -0.4779
UAGAGAUUAAAGGCCCACU | KCNIP3 | -1.883
UCGAUAUCAACAGAAAACG | HINT1P1 | 0.3273
UUUGCAGGCAGAAUUCUCC | KNDC1 | -0.6449
UGUUCGGUUAUACCCAUCC | ASB8 | -0.006114
UAGAAUGUCACUGAGUGCC | FAM83E | 1.011
AUACCUGUAACAAUAAGAC | SUMF1 | 0.01059
AACGGGACGAAUUACAAUG | OR52J3 | -0.2891
UUCAUUCUGCUGAAUAUGA | TIMM9 | -0.1743
AUUCUGAAUAGGAAGUGUC | FECH | 0.148
UCUGGAAACAUUGGAAAUC | LINC00273 | -0.5972
UUUGUUGUUCAGCAUAUCG | DHX29 | -0.2933
ACAAUUCCAACAGUCCUCC | PCCB | -1.507
UUCCCGUUCAUCUUCAUUC | EIF2S1 | -1.199
UUCCUGAUCAAGCCGAUGG | JUP | 0.748
UAAGACAGAGUAUAAAUUG | STEAP1B | 0.3833
UUCUUCUACACGGCUGGUC | PPP1R12B | 0.3263
UAGUUAAAAGGCCUCCUCC | MSL3P1 | 0.7811
UAAUCUGAAAGACUAGAGG | TMEM126B | 0.6253
UCAAAAUCCACCUUGACUA | CAV3 | 0.2452
UACACGGAAAGGAUAAAGC | SERPINB2 | -0.4765
AAGGUCUUAGGAAAGUCGC | MEF2BNB-MEF2B | -0.8586
AGAGCAAUUCGAACUCUCC | GSTZ1 | -0.05044
UUUACUCCAUGGUCCAACC | THSD7B | -0.945
UACUUUCGUACGGUCUCCG | A2M | -1.054
AUAGUAGAACUUAUACUCC | TYK2 | 1.239
UAUUUGGUCCCAAAAGUUC | NME5 | -0.4517
GUAGCCAUCAUACACAGUC | LYNX1 | -0.6465
UCCUUUAAGGAGUUGAUCG | FLRT2 | 0.4297
UCUCGUGUCUAUUAUAGCC | CDH6 | -0.335
UCACUUAACCGUACAUCUG | VPS50 | 0.2819
UCCAGUGGCCCUGUUAUCU | SNAPC2 | 0.4553
UGUCUAUUAUGUCCAAUAG | TYRP1 | -0.2614
AAGAAAACAUGAUCCUUGG | HN1L | -0.3889
UCUCUUGUCAGGUUCAUGC | PDCL3 | 0.9378
UAUGCAGAUGUAGAAACCG | OCSTAMP | 0.03384
UAAAUAUAAAGUGCUAAGU | DUSP2 | 0.2894
UUCGAGUAAAUCUCCUUGC | RECQL | -0.3228
UAUUCAGCAACUCAUCGGC | AP2A1 | -1.183
UUUCCGUGAACUGUAAUGC | GLB1L2 | 0.3598
UGAUCUUUGAUAGGCUUGU | ZNF860 | 0.3016
UUUAGCAUCAUCCAGAUUC | FANCE | -0.6252
UAGGGAUACAAGAGGCACC | CRABP1 | 0.8399
UGAUGUUAACUGAUUGUCC | SHOC2 | 0.2563
UUCAGACUCAGGAUGGAUG | BTD | 0.07077
UCAUUAAUCCCUGAGGUCC | FOLR3 | 0.04414
AAACCCUUCGAUAACAUGC | PHC2 | 0.1734
UGUAUCACAAGAAAUCAGG | DNAJC24 | -0.009546
UCUGUUUGAACUCAGCAGG | AP2A2 | -1.041
UUCUAUGCGAAUUCGAGGG | DIS3 | 0.5111
UUUGAUAGACUUGGCAUAC | RPL29P23 | -0.2096
UACUAUAGAAACAACUCGC | GPR22 | -0.375
UGUUGAACAGGAUUAGUUC | ATXN3 | 0.6155
UUUGGACCAACUCUAGGGC | PLEKHG4 | 0.6167
UUUGGUAACGGUUAUUAUG | CSF1R | 0.1125
AGUGGGCUCAGUACGUUAG | FLJ37453 | -0.1383
UUGUAGUCCAUGCACAGCG | FZD8 | -0.2432
UCCUUUAAAGCAGCUACUG | LINC01547 | -0.03983
AAAGAGUGACGAGUUGUGC | TLX3 | 0.3716
UCGGCUACCACGAACAUCC | ATP2A3 | 0.08159
UGAGUAAUGACAGACAAAC | RNMT | -0.0916
AAGAUUGCAAAUGAGGUCC | RNF139 | -0.1714
AGUCCAGUAACAGUCGUGC | POLRMT | -0.1581
UGAACCUCUCCUGAUAUCG | SPRYD3 | -0.7086

The results are deposited in PubChem (AID1159506; NCATS, 2015).